Read-outs that look alike come from different tables or passages of the source. The structures given here were assigned with low confidence; some may be wrong.

Amino acid sequences for entries named in this document (tags omitted). Residues count along the entry.
UniProt A0A5F8ATS5, 1-984: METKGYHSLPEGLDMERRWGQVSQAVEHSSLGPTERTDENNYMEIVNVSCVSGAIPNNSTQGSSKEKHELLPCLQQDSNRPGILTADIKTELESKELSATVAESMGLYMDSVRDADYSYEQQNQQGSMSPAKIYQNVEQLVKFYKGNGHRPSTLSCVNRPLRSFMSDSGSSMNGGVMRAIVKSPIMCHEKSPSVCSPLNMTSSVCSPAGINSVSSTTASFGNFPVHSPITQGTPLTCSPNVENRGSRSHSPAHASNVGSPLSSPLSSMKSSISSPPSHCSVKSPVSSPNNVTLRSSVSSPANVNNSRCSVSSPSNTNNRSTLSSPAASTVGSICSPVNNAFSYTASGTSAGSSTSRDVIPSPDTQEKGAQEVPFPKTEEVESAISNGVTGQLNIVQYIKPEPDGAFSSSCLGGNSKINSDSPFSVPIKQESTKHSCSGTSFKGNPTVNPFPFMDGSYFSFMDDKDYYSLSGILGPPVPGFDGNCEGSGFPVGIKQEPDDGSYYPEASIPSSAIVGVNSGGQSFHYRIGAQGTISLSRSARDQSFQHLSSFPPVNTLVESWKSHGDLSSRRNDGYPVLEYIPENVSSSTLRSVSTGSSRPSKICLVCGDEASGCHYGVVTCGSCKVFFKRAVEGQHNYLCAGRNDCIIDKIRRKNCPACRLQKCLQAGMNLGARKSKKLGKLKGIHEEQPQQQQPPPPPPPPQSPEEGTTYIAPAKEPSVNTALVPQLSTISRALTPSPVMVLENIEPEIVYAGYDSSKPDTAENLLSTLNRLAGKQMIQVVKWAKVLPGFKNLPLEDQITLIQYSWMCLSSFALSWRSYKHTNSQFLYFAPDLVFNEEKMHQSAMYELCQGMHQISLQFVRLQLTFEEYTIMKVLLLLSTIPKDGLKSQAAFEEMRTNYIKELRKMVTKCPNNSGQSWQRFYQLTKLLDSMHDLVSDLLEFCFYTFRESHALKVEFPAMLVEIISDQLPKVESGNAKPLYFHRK
UniProt Q13936, whole entry: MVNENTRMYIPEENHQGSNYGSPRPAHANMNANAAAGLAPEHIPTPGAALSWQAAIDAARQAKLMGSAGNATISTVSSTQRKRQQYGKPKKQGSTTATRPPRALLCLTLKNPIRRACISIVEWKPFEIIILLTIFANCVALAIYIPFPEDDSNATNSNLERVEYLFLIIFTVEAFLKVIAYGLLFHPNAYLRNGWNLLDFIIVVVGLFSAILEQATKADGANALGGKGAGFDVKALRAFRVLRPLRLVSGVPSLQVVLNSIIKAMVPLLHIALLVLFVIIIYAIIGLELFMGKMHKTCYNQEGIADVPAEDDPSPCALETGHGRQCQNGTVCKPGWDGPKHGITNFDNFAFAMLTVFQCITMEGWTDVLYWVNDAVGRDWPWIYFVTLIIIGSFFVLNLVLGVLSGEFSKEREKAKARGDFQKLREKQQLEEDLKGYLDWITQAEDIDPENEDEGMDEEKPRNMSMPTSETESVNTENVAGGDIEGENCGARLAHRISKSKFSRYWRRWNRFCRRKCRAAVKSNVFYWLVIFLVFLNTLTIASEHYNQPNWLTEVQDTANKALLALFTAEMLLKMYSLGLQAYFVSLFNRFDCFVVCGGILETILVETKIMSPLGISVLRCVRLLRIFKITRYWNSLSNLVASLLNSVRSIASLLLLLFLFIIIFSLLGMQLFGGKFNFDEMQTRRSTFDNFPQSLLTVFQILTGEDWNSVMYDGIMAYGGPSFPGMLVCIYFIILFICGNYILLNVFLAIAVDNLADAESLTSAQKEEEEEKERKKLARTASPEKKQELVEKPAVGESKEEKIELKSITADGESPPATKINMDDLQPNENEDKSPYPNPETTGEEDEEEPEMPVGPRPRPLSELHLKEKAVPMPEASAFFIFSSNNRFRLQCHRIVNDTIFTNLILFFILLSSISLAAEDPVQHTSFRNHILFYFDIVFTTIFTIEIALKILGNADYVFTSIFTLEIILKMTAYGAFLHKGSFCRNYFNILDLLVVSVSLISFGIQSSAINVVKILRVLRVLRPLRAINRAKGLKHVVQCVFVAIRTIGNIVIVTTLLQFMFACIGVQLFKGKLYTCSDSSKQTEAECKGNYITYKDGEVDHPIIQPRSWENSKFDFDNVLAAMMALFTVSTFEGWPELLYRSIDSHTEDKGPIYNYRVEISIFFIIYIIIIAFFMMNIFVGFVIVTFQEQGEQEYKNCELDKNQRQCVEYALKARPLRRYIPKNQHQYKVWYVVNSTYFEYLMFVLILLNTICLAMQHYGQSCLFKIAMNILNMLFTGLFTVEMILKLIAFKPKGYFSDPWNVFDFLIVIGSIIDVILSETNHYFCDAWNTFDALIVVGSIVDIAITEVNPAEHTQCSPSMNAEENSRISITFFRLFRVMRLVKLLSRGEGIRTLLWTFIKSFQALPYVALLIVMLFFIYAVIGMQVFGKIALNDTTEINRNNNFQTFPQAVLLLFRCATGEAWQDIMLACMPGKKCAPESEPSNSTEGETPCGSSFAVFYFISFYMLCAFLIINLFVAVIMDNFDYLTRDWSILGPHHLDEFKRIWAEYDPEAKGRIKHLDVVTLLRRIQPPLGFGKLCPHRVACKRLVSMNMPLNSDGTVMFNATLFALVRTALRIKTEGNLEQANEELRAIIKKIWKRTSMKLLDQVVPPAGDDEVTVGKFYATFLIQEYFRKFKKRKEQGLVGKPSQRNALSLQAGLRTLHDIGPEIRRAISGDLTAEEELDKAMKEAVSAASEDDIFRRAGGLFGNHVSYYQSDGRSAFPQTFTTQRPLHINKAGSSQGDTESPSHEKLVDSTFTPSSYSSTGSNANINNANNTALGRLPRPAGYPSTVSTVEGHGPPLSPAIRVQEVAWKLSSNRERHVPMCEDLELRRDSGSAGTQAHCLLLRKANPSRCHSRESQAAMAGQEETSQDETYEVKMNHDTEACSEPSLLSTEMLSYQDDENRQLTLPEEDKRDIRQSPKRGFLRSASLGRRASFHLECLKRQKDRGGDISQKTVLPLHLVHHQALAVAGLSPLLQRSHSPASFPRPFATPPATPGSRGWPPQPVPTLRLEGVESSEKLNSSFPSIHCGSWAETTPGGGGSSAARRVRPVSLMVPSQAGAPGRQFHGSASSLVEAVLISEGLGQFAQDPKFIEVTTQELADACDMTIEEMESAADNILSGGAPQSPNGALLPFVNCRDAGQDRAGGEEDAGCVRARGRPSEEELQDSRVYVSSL
UniProt P54289, 25-946 partner limits assumed: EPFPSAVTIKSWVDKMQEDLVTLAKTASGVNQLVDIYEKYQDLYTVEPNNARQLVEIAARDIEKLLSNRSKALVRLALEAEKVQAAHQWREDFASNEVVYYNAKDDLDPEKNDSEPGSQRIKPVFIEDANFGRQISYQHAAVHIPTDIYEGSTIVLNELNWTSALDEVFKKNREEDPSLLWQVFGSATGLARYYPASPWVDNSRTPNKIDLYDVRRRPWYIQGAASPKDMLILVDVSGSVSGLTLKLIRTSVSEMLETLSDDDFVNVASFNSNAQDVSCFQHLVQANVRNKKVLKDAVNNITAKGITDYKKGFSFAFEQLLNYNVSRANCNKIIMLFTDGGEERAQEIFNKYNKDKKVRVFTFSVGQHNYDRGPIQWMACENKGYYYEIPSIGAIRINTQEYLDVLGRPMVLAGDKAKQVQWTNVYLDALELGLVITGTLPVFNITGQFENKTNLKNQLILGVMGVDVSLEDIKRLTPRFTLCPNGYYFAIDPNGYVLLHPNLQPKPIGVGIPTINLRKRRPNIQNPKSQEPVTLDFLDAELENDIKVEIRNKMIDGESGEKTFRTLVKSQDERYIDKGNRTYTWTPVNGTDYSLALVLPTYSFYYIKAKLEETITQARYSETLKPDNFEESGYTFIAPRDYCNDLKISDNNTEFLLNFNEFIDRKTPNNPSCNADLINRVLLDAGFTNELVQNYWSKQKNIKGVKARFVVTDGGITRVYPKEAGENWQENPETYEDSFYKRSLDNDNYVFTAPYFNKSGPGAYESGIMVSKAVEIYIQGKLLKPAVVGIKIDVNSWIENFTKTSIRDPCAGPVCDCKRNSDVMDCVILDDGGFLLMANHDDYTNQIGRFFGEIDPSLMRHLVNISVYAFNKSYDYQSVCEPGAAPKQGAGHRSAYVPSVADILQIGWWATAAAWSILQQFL
UniProt P54289, 947-1103 partner limits assumed: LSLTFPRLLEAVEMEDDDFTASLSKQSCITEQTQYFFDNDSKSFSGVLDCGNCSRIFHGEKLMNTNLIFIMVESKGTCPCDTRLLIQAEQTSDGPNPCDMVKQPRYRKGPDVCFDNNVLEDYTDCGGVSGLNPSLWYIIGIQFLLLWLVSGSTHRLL
UniProt Q08289, whole entry partner: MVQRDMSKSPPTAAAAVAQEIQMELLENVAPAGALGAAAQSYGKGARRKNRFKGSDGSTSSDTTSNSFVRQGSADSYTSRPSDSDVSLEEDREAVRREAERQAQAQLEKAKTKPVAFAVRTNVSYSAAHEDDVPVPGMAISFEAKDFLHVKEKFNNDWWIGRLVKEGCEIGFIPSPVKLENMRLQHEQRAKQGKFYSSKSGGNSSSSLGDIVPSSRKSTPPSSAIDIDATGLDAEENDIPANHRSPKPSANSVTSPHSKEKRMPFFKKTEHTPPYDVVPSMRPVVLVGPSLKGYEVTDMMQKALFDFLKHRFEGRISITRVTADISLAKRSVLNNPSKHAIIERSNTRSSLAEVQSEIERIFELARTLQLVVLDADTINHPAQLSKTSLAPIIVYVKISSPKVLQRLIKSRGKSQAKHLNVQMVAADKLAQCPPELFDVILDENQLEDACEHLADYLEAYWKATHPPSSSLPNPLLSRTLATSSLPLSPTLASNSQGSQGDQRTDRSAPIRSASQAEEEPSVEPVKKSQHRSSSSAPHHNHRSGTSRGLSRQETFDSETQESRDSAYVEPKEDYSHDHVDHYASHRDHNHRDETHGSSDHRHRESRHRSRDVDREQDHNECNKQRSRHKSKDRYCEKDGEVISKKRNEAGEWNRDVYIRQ

The Ki is the dissociation constant of the complex between target and ligand, obtained from inhibition or displacement.

Data set [1] has as its target recombinant rhesus mineralocorticoid receptor (Macaca mulatta, UniProt A0A5F8ATS5). Kind of data set: Mineralocorticoid receptor binding affinity, [3H]-aldosterone filter binding assay.
The target in another data set is Cav1.2 (Homo sapiens, UniProt Q13936). The experiment in a line: Calcium channel block, FLIPR TETRA fluorescence assay in HEK293 cells expressing L-type calcium channels. The note with it: 25 mM potassium.

For the molecule `COc1cc(C2C(C(=O)OCc3ccccc3)=C(C)NC(C)=C2C(=O)OCc2ccccc2)ccc1O`, the Ki in data set [1] (read-out: MRBIND Ki (nM) Average, average of Rep#1 and Rep#2) amounted to 21.5 nM; in data set [1] (read-out: MRBIND Ki (nM) Rep#1, replicate 1) it was 32 nM; in data set [1] (read-out: MRBIND Ki (nM) Rep#2, replicate 2), 11 nM. Moreover, the “FLIPRIETRA Cav1.2 % Inhibition 0.3 μM” value at Cav1.2 (0.3 μM compound) is recorded as 45%. Besides, the “FLIPRIETRA Cav1.2 % Inhibition 1 μm” value on Cav1.2 (1 μm compound) worked out at 76%. The “FLIPRIETRA Cav1.2 % Inhibition 3 μm” value on Cav1.2 (3 μm compound) came to 87%. The “FLIPRIETRA Cav1.2 % Inhibition 10 μm” value on Cav1.2 (10 μm compound) is given as 93%. In addition, on Cav1.2 (30 μm compound), the “FLIPRIETRA Cav1.2 % Inhibition 30 μm” value stood at 106%.
